The values that follow come from article PMC8865542.

Chains of the proteins cited; added tags and fusions are not shown.
UniProt D0EZM8: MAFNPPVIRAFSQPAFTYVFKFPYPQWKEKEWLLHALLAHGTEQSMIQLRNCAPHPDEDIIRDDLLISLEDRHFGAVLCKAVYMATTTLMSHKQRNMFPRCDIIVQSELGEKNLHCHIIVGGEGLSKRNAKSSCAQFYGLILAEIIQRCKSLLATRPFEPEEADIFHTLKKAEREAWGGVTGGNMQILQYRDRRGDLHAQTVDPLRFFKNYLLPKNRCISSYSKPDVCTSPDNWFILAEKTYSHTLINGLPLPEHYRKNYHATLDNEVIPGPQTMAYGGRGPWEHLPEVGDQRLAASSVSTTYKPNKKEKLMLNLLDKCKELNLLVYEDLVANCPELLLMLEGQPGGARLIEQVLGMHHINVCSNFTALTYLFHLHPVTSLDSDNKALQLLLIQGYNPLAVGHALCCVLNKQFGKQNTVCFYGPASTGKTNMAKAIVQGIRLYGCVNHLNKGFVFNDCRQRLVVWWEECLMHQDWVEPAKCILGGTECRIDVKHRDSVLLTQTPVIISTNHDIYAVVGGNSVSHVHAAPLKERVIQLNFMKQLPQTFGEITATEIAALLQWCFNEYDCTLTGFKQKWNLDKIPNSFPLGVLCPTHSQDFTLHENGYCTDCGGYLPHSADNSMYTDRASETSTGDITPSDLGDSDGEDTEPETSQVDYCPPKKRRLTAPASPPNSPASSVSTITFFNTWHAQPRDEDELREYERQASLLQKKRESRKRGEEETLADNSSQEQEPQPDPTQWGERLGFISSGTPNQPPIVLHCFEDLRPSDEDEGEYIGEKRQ
UniProt P78527: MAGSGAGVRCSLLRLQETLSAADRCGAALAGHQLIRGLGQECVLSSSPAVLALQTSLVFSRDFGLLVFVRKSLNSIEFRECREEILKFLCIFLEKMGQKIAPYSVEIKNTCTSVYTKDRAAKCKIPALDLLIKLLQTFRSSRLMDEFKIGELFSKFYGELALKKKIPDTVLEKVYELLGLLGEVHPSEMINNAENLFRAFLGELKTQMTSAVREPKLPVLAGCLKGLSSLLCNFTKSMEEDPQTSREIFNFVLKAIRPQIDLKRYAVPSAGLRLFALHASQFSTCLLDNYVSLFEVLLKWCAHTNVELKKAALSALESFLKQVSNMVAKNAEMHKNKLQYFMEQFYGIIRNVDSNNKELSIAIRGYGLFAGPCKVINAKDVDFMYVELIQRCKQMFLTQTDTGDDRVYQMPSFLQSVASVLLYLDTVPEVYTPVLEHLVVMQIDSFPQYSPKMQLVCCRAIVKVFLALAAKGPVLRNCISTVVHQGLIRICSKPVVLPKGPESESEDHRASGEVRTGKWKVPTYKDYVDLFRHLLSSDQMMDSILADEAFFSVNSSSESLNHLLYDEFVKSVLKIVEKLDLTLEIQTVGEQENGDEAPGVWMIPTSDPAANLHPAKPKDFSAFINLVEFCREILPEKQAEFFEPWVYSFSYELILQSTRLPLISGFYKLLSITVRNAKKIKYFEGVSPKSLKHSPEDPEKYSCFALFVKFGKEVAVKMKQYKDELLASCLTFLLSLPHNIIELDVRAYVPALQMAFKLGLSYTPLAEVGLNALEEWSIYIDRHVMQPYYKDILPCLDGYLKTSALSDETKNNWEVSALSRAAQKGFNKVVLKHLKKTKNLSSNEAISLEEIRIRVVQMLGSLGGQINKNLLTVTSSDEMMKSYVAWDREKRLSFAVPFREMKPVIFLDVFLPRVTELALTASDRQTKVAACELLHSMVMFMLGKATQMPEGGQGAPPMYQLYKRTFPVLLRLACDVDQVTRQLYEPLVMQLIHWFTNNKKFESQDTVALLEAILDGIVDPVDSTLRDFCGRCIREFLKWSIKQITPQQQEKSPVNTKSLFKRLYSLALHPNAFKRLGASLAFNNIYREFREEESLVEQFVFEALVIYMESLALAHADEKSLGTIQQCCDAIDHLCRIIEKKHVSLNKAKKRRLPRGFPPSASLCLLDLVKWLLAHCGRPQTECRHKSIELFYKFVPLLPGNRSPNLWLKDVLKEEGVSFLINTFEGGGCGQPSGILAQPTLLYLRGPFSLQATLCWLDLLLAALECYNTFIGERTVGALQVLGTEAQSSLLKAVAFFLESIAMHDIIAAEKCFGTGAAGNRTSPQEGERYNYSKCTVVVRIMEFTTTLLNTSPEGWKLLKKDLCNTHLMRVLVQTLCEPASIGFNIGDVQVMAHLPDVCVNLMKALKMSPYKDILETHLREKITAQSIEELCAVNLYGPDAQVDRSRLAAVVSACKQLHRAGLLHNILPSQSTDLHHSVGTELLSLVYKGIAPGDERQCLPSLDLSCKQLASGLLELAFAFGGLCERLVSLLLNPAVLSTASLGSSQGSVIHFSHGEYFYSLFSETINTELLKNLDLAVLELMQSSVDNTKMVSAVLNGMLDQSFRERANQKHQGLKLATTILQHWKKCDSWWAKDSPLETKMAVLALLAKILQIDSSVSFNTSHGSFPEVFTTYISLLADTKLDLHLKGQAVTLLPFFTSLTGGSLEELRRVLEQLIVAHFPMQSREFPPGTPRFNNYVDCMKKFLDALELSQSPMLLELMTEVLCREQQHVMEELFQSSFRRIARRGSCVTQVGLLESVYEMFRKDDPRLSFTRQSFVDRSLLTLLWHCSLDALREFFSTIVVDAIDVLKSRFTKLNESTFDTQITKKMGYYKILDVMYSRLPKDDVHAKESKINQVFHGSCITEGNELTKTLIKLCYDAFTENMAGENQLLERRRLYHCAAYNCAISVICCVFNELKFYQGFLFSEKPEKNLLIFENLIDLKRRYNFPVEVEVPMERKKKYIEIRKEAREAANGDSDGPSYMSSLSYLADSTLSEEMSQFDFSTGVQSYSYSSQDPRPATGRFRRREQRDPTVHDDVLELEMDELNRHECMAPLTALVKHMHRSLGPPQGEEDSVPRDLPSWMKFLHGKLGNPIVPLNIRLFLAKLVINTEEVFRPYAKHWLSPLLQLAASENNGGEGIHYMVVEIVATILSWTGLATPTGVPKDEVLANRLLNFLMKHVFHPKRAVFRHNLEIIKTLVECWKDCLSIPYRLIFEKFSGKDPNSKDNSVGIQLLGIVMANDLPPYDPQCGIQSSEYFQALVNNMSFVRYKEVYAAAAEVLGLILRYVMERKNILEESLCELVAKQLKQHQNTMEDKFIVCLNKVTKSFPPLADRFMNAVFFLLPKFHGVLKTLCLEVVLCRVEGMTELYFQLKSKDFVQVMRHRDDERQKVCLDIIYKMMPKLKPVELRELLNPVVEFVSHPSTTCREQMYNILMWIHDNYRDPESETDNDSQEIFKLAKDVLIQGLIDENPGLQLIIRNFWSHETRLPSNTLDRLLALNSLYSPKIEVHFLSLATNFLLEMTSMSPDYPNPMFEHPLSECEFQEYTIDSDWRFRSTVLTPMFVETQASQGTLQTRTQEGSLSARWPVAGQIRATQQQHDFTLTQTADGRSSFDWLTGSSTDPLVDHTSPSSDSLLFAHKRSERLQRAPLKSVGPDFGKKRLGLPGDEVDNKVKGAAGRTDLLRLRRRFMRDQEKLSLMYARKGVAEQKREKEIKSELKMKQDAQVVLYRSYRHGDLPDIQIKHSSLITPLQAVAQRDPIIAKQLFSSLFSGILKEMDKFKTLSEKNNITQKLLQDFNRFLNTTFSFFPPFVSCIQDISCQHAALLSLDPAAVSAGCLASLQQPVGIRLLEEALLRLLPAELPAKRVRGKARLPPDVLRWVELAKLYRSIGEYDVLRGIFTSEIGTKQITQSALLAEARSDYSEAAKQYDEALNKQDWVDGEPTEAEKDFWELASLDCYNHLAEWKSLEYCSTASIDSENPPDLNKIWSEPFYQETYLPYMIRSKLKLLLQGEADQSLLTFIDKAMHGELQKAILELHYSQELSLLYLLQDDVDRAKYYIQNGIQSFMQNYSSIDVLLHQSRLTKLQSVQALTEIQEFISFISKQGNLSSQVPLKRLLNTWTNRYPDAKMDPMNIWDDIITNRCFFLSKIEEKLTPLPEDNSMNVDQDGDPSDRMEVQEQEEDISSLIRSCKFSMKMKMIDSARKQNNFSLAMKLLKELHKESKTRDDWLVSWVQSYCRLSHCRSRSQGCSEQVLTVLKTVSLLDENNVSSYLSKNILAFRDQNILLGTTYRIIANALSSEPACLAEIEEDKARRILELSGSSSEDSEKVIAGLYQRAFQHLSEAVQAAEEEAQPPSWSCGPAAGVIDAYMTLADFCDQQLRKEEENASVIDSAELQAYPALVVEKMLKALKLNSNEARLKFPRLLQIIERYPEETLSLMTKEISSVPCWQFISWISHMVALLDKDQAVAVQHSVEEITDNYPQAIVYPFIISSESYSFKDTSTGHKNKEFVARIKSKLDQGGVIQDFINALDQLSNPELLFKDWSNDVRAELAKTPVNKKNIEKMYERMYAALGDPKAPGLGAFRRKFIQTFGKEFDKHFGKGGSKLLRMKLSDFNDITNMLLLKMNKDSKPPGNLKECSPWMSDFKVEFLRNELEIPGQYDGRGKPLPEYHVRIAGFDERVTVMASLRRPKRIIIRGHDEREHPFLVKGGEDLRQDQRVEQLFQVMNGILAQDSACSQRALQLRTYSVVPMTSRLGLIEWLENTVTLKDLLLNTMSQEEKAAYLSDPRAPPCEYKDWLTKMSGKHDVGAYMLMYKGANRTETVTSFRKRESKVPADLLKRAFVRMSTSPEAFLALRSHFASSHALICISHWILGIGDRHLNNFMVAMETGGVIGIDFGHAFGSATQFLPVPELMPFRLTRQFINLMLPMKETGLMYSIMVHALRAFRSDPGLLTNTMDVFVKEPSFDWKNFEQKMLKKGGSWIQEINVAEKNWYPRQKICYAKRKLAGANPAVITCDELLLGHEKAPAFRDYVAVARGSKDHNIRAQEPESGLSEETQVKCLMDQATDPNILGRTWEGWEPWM
UniProt P11142: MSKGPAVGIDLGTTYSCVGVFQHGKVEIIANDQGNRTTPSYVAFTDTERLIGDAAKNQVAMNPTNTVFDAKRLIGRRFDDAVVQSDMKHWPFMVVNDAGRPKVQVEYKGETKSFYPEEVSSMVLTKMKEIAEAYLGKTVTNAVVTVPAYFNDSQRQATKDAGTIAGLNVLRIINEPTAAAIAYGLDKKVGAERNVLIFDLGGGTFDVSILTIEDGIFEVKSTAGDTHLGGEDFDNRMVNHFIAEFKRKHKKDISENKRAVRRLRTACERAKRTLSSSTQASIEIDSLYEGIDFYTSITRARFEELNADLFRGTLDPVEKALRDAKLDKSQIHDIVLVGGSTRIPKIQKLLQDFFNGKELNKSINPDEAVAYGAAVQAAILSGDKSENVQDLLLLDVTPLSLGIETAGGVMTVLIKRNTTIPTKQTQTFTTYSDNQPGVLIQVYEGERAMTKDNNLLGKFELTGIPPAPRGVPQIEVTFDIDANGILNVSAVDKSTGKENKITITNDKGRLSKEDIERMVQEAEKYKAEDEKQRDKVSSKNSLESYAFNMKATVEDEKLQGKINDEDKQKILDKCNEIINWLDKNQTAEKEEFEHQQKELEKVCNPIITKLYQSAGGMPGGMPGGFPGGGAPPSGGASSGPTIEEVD
UniProt P27694: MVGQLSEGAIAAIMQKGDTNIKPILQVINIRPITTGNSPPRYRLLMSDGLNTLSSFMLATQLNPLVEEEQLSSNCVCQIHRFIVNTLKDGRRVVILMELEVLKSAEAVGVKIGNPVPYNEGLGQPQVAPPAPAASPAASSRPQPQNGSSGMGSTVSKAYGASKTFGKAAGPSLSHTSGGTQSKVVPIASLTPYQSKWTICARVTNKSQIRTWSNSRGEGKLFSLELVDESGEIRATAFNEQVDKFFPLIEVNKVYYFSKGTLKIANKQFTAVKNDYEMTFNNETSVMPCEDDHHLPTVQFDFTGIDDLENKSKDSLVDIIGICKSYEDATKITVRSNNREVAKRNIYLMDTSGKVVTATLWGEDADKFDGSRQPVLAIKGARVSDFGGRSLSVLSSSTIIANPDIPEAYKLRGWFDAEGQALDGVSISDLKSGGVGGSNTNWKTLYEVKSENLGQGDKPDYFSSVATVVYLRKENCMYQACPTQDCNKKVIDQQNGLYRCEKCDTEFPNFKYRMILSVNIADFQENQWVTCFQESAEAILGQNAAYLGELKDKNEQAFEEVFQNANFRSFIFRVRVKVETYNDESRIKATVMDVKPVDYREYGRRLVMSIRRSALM

In this assay the target is HBoV1 NS1 (codon-optimized NS1-100) fused with BioID2 (human bocavirus 1 (HBoV1)) (UniProt D0EZM8). The assay is described as follows: proximity labelling.

These are yes or no findings as the source states them, for the method shown. In cells and extracts the contact can be indirect. A yes stands for co-enrichment or nearness to the bait. Other partners may have been found.

Consider “DNA-PKcs (DNA-dependent protein kinase catalytic subunit) (from UniProt P78527 1-4128)”, for which the binding entry is listed as “binds”.

On to HSPA8 (from UniProt P11142 1-646), for which the binding entry was “binds”.

For the molecule RPA1 (from UniProt P27694 1-616), the binding result is recorded as “binds”.

B1: MCM3 (protein, UniProt P25205 1-808)
chain: MAGTVVLDDVELREAQRDYLDFLDDEEDQGIYQSKVRELISDNQYRLIVNVNDLRRKNEKRANRLLNNAFEELVAFQRALKDFVASIDATYAKQYEEFYVGLEGSFGSKHVSPRTLTSCFLSCVVCVEGIVTKCSLVRPKVVRSVHYCPATKKTIERRYSDLTTLVAFPSSSVYPTKDEENNPLETEYGLSVYKDHQTITIQEMPEKAPAGQLPRSVDVILDDDLVDKAKPGDRVQVVGTYRCLPGKKGGYTSGTFRTVLIACNVKQMSKDAQPSFSAEDIAKIKKFSKTRSKDIFDQLAKSLAPSIHGHDYVKKAILCLLLGGVERDLENGSHIRGDINILLIGDPSVAKSQLLRYVLCTAPRAIPTTGRGSSGVGLTAAVTTDQETGERRLEAGAMVLADRGVVCIDEFDKMSDMDRTAIHEVMEQGRVTIAKAGIHARLNARCSVLAAANPVYGRYDQYKTPMENIGLQDSLLSRFDLLFIMLDQMDPEQDREISDHVLRMHRYRAPGEQDGDAMPLGSAVDILATDDPNFSQEDQQDTQIYEKHDNLLHGTKKKKEKMVSAAFMKKYIHVAKIIKPVLTQESATYIAEEYSRLRSQDSMSSDTARTSPVTARTLETLIRLATAHAKARMSKTVDLQDAEEAVELVQYAYFKKVLEKEKKRKKRSEDESETEDEEEKSQEDQEQKRKRRKTRQPDAKDGDSYDPYDFSDTEEEMPQVHTPKTADSQETKESQKVELSESRLKAFKVALLDVFREAHAQSIGMNRLTESINRDSEEPFSSVEIQAALSKMQDDNQVMVSEGIIFLI
On to B1, for which the binding result is listed as “binds”.

B2: SNW1 (protein, UniProt Q13573 1-536)
chain: MALTSFLPAPTQLSQDQLEAEEKARSQRSRQTSLVSSRREPPPYGYRKGWIPRLLEDFGDGGAFPEIHVAQYPLDMGRKKKMSNALAIQVDSEGKIKYDAIARQGQSKDKVIYSKYTDLVPKEVMNADDPDLQRPDEEAIKEITEKTRVALEKSVSQKVAAAMPVRAADKLAPAQYIRYTPSQQGVAFNSGAKQRVIRMVEMQKDPMEPPRFKINKKIPRGPPSPPAPVMHSPSRKMTVKEQQEWKIPPCISNWKNAKGYTIPLDKRLAADGRGLQTVHINENFAKLAEALYIADRKAREAVEMRAQVERKMAQKEKEKHEEKLREMAQKARERRAGIKTHVEKEDGEARERDEIRHDRRKERQHDRNLSRAAPDKRSKLQRNENRDISEVIALGVPNPRTSNEVQYDQRLFNQSKGMDSGFAGGEDEIYNVYDQAWRGGKDMAQSIYRPSKNLDKDMYGDDLEARIKTNRFVPDKEFSGSDRRQRGREGPVQFEEDPFGLDKFLEEAKQHGGSKRPSDSSRPKEHEHEGKKRRKE
B2: the binding entry was “binds”.

B3: ORC3 (protein, UniProt Q9UBD5 1-711)
chain: MATSSMSKGCFVFKPNSKKRKISLPIEDYFNKGKNEPEDSKLRFETYQLIWQQMKSENERLQEELNKNLFDNLIEFLQKSHSGFQKNSRDLGGQIKLREIPTAALVLGVNVTDHDLTFGSLTEALQNNVTPYVVSLQAKDCPDMKHFLQKLISQLMDCCVDIKSKEEESVHVTQRKTHYSMDSLSSWYMTVTQKTDPKMLSKKRTTSSQWQSPPVVVILKDMESFATKVLQDFIIISSQHLHEFPLILIFGIATSPIIIHRLLPHAVSSLLCIELFQSLSCKEHLTTVLDKLLLTTQFPFKINEKVLQVLTNIFLYHDFSVQNFIKGLQLSLLEHFYSQPLSVLCCNLPEAKRRINFLSNNQCENIRRLPSFRRYVEKQASEKQVALLTNERYLKEETQLLLENLHVYHMNYFLVLRCLHKFTSSLPKYPLGRQIRELYCTCLEKNIWDSEEYASVLQLLRMLAKDELMTILEKCFKVFKSYCENHLGSTAKRIEEFLAQFQSLDETKEEEDASGSQPKGLQKTDLYHLQKSLLEMKELRRSKKQTKFEVLRENVVNFIDCLVREYLLPPETQPLHEVVYFSAAHALREHLNAAPRIALHTALNNPYYYLKNEALKSEEGCIPNIAPDICIAYKLHLECSRLINLVDWSEAFATVVTAAEKMDANSATSEEMNEIIHARFIRAVSELELLGFIKPTKQKTDHVARLTWGGC
As for B3, the binding result is “binds”.
